Measurements: patent US20250289896A1
No constants are given. Whether binding was seen depends on the method and setting. Some entries that bind do so weakly or less than the wild type.

Sequences of proteins named here, by UniProt entry; tags and fusion partners are left off. A change or cut given only in a name is not applied to a line headed by its entry. A line that says so, or that is headed by a name, gives the form on record, which may keep a tag or linker.
cynomolgus macaque CCR8 (G7NYJ2, form named): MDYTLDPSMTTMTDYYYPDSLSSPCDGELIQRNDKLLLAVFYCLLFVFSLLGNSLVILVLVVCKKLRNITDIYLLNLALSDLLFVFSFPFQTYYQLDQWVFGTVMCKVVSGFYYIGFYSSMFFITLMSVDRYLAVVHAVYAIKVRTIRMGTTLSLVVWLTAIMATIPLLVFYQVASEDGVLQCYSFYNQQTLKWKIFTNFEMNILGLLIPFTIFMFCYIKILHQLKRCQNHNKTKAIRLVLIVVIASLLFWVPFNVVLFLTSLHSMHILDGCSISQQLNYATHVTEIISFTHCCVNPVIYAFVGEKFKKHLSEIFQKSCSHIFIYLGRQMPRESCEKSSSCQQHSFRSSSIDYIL

Biological target: cynomolgus macaque CCR8 (cynomolgus macaque) (UniProt G7NYJ2)
Assay: flow cytometry, 293T cells overexpressing cynomolgus CCR8

B1: ABC822 (antibody, human IgG1, kappa, V domains shown)
VH: EVQLVESGGGLMQPGRSLKLSCAASGFSFSDYYMAWVRQAPKKGLEWVASISNAGTKTYYGDSVKGRFTISRDDAKSTLYLQMNSLRSEDTATYYCVRQDLYYGRNQYWYFDFWGPGTMVTVSS
VL: IVMTQSPTSMSKSVGDRVTMNCKASQSVGSNVDWYQQKTGQSPKLLIYKTSSRFTGVPDRFTGSGSRTDFTFTISSMQAEDLALYYCVQSNSYPYTFGAGTKLELKR
With B1 the binding was “binds”.

B2: ABC1183 (antibody, human IgG1, kappa, V domains shown)
VH: EVQLLESGGGLVQPGGSLRLSCAASGFSFSDYYMAWVRQAPGKGLEWVASISNAGTKTYYGDSVKGRFTISRDDSKNTLYLQMNSLRAEDTAVYYCVRQDLYYGRNQYWYFDFWGRGTLVTVSS
VL: DIQMTQSPSSLSASVGDRVTITCKASQSVGSNVDWYQQKPGKSPKLLIYKTSSRFTGVPSRFSGSGSRTDFTLTISSLQPEDFATYYCVQSNSYPYTFGAGTKLELKR
With B2 the binding was “binds”.
